These results are taken from article PMC10325903.

Sequences of proteins named here, by UniProt entry; tags and fusion partners are left off. Residues count along the entry.
UniProt P31316, 167-305: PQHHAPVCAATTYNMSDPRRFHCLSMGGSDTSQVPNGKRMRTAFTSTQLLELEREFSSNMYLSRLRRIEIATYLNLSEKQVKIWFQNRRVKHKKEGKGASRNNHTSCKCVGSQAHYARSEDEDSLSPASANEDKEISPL
UniProt P40764, 137-229: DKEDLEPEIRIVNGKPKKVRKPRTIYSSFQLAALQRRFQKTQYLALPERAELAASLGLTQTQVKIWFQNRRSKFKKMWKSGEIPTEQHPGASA

The comparison behind a weaker result is the experiment's own reference, which may not be listed here.

The target of one data set is Gsx2 HD fragment (UniProt P31316). The data set is described as follows: EMSA. The settings on record: 100 and 400 nM protein, 34 nM IRDye700 probe, room temperature 20 min, 4% polyacrylamide gel 150 V 2 h, recombinant protein, label: 5' IRDye700 on bottom strand. Background: In EMSA bound probe runs differently from free probe, usually more slowly.
In a further data set the target is Dlx2 HD fragment (UniProt P40764). The data set is described as follows: EMSA. The following applies: 20 and 80 nM protein, 34 nM IRDye700 probe, room temperature 20 min, 4% polyacrylamide gel 150 V 2 h, recombinant protein, label: 5' IRDye700 on bottom strand.

For the sequence “CCCCGTAATCGCGGCGTAATCCCGCTAGTGCGGGCGTGGCT (double strand) [Gsx1/2_RULE_2]”, the binding result with Gsx2 HD fragment is “binds more weakly”.

“CCCGCAATTCGCGGTTATCCGGGTAGTGCGGGCGTGGCT (double strand) [Dlx2_RULE_2]”: the binding result with Dlx2 HD fragment is “binds more weakly”. For the sequence “CGGCCTAATGCCCCGGTAATGCCCGTAGTGCGGGCGTGGCT (double strand) [Gsx1/2_RULE_1]”, the binding result with Gsx2 HD fragment is reported as “binds more weakly”. With “GGGGCAATTGCGGCTTATGGGGCTAGTGCGGGCGTGGCT (double strand) [Dlx2_RULE_1]”, the binding result with Dlx2 HD fragment is “binds more weakly”.
